The values that follow come from publication PMC9909992.

These are yes or no findings as the source states them, for the method shown. Binding seen in cells or lysates may run through a third protein. Some results given as binding are weak or reduced against the parent protein; the word gives no strength.

This experiment concerns the target T1, CD73 (ecto-5'-nucleotidase, NT5E) (rat (endogenous in HSC-T6)) (UniProt P21588).
T1 sequence: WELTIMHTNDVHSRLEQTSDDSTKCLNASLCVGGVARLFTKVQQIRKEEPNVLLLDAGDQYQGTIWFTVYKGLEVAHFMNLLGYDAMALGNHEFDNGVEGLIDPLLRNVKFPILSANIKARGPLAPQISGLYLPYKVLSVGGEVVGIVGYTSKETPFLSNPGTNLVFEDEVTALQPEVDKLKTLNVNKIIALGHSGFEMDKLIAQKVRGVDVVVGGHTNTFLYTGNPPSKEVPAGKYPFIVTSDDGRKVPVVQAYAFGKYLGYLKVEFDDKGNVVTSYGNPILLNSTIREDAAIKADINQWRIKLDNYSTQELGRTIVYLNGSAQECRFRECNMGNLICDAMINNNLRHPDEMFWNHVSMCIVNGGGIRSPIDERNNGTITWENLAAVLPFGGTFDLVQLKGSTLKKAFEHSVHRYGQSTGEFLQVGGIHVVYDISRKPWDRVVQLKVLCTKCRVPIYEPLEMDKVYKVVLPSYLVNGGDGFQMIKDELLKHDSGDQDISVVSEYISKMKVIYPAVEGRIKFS
The experiment in a line: co-IP; HSC-T6 cell lysate incubated with anti-CD73 antibodies for 2 h, protein A/G agarose beads overnight at 4 °C, immune complexes blotted for AURKA.

B1: Aurora kinase A (AURKA) (enzyme, UniProt P59241 1-397)
chain: MDRCKENCVSRPVKSTVPFGPKRVLVTEQIPSQHPGSASSGQAQRVLCPSNSQRVPPQAQKPVAGQKPVLKQLPAASGPRPASRLSNPQKSEQPQPAASGNNSEKEQTSIQKTEDSKKRQWTLEDFDIGRPLGKGKFGNVYLAREKQSKFILALKVLFKVQLEKAGVEHQLRREVEIQSHLRHPNILRLYGYFHDATRVYLILEYAPLGTVYRELQKLSKFDEQRTATYITELANALSYCHSKRVIHRDIKPENLLLGSNGELKIADFGWSVHAPSSRRTTLCGTLDYQPPEMIEGRMHDEKVDLWSLGVLCYEFLVGMPPFEAHTYQETYRRISRVEFTFPDFVTEGARDLISRLLKHNSSQRLTLAEVLEHPWIKANSSKPPTGHNSKEATSKSS
With B1, the binding result is on record as “binds”.
